From patent publication EP4415826B1, “SYNTHESIS AND IN VITRO ANTITUMOR ACTIVITIES OF NOVEL THIOAMIDE SUBSTITUTED PIPERAZINYL-1,2,4-TRIAZINES” (Istanbul Medipol Universitesi, priority 2021, dated 2023)

Assays:
U87MG glioblastoma = assay: MTT cell viability assay, U87MG; format: cell-based; conditions: ratio of IC50 U87MG to IC50 NIH3T3; first value of the cell
Protocol: (§1) In order to assess the viability of the cells MTT […] assay was applied. Initially cells were seeded in the 96-well plates (VWR- 10062900) at a density of 10,000 cells/well and incubated in a cell culture incubator at 37 °C with 5% CO2 for 24 hours. Then, the cells were incubated with the tested compounds at the concentration of 100µM, 50µM, 25µM and 12.5µM for 24 hours. After completion of incubation in molecules, all media were removed and 50 µl MTT (Gold Biotechnology T-030) solution was added to each well and the plates were incubated for an additional 3 hours, followed by addition of 150 µl of MTT solubilization mixture containing 0.1% Triton X-100 (Cat. No:A4025, Biomatik, USA ) and 4mM HCI (Cat. No:07102, Sigma-Aldrich, Germany) in isopropanol(Cat. No:278475, Sigma-Aldrich, Germany). The solution was slowly mixed for 15 minutes to dissolve the MTT formazan crystals and the absorbance of each well was measured with HIDEX Sense Microplate Reader(Cat. No:425-301, HIDEX, Finland) at the wavelength of 570 nm.

MCF7 breast tumor = assay: MTT cell viability assay, MCF7; format: cell-based; conditions: ratio of IC50 MCF7 to IC50 NIH3T3; second value of the cell
Protocol: as §1

N.N.[Cl][Pt][Cl] [Cisplatin, reference compound]
SI U87MG/NIH3T3 (U87MG glioblastoma): 4.88
SI MCF7/NIH3T3 (MCF7 breast tumor): 1.73

CCNC(=S)N1CCN(c2nnc(-c3ccccc3)c(-c3ccccc3)n2)CC1 [Compound 1a, 4-(5,6-diphenyl-1,2,4-triazin-3-yl)-N-ethylpiperazine-1-carbothioamide]
SI U87MG/NIH3T3 (U87MG glioblastoma): 0.89
SI MCF7/NIH3T3 (MCF7 breast tumor): 1.89

S=C(Nc1ccccc1)N1CCN(c2nnc(-c3ccccc3)c(-c3ccccc3)n2)CC1 [Compound 1b, 4-(5,6-diphenyl-1,2,4-triazin-3-yl)-N-phenylpiperazine-1-carbothioamide]
SI U87MG/NIH3T3 (U87MG glioblastoma): 1.08, ND

S=C(Nc1ccc(Cl)cc1)N1CCN(c2nnc(-c3ccccc3)c(-c3ccccc3)n2)CC1 [Compound 1f, N-(4-chlorophenyl)-4-(5,6-diphenyl-1,2,4-triazin-3-yl)piperazine-1-carbothioamide]
SI U87MG/NIH3T3 (U87MG glioblastoma): 0.90, ND

COc1ccc(-c2nnc(N3CCN(C(=S)Nc4ccccc4)CC3)nc2-c2ccc(OC)cc2)cc1 [Compound 1g, 4-(5,6-bis(4-methoxyphenyl)-1,2,4-triazin-3-yl)-N-phenylpiperazine-1-carbothioamide]
SI U87MG/NIH3T3 (U87MG glioblastoma): 0.89
SI MCF7/NIH3T3 (MCF7 breast tumor): 1.19

S=C(Nc1ccccc1)N1CCN(c2nnc(-c3ccc(Cl)cc3)c(-c3ccc(Cl)cc3)n2)CC1 [Compound 1h, 4-(5,6-bis(4-chlorophenyl)-1,2,4-triazin-3-yl)-N-phenylpiperazine-1-carbothioamide]
SI MCF7/NIH3T3 (MCF7 breast tumor): ND, 1.92

S=C(Nc1ccc(Cl)cc1)N1CCN(c2nnc(-c3ccc(Cl)cc3)c(-c3ccc(Cl)cc3)n2)CC1 [Compound 1i, 4-(5,6-bis(4-chlorophenyl)-1,2,4-triazin-3-yl)-N-(4-chlorophenyl)piperazine-1-carbothioamide]
SI U87MG/NIH3T3 (U87MG glioblastoma): 1,21, ND
